Patent US20210261642A1, “SOLUBILITY OF GLP-1 PEPTIDE” (Novo Nordisk A/S, priority 2017, published 2021)
Further values from the same series stand in other lists.

Assay: Assay (I): Determination of Solubility (96-well plate, pH 3.0-11.0, organic solvent 0-70% w/w, UV absorption at 280 nm)
Assay type: physicochemical
Conditions: Method 1 (evaporation)
Procedure: Assay (I): Determination of Solubility
96-Well Plate Preparation
96-well plates containing target peptide in a solid form were prepared in one of two ways:
Method 1 (evaporation): Addition of 100 μl stock solution of said peptide at a concentration of 4-6 mg/ml to each well of a 96-well half area plate (150 μl well size). Subsequently the solvent was evaporated by applying a vacuum until the solvent was completely removed.
Method 2 (precipitation): Addition of a certain volume of a stock solution of said peptide containing to each well of a 96-well half area plate followed by the addition of a certain volume of concentrated phosphoric acid to obtain a pH of 4.6 followed by addition of a certain volume of ethanol resulting in a final ethanol concentration of 20% v/v. Subsequently the plate was stored at 4° C. for 1 h and then centrifuged at 4,000 rpm for 20 min. Finally the supernatant was removed. The concentration of the stock solution was chosen in a way that the final amount of peptide after supernatant removal was >0.4 mg per well.
In both cases the stock solution was prepared by adding de-ionized water to a certain amount of powder of said peptide followed by a stepwise addition of small amounts of a concentrated sodium hydroxide solution until said peptide was completely in solution.
To determine solubility of a target peptide at different pH and organic solvent concentrations, two different buffer systems were used in independent experiments to cover the whole range from pH 3.0 to pH 11.0. Buffer system 1 covers pH 3.0-7.5 and buffer system 2 covers pH 7.5-11.0. For each buffer system 96 different solvent compositions were premixed in the following way: • 1. A low pH buffer (adjusted to either pH 3.0 or pH 7.5) and a high pH buffer (adjusted to either pH 7.5 or pH 11.0) were mixed at 8 different ratios to obtain values between pH 3.0 and pH 7.5 or pH 7.5 and pH 11.0, respectively. The total volume after mixing was 300 μl. • 2. 12 different amounts of organic solvent were then added to these buffers to obtain organic solvent (e.g. ethanol) concentrations between 0 and 70% w/w. • 3. Water was then added to obtain a total weight of 1.0 g of solvent in each well.
After preparing the 96 different solvent systems, 100 μl of each system was transferred to the 96-well plate containing the solid form of the target peptide (prepared as described in the section “96-well plate preparation”). The plate was then stored at a given temperature (between 5° C. and 70° C.) for a given time on a rotating shaker set to 400 rpm. At regular time intervals the plate was centrifuged (4,000 rpm for 10 min) and a 10 μl sample was taken from each well. The samples were then analysed by UV absorption at 280 nm for peptide quantification. Peptide concentration results are given as UV absorption at 280 nm of the sample subtracted UV absorption at 280 nm of a well comprising 10 μl water.
The buffers used were as follows: • Buffer system 1 (for the pH range from pH 3.0-7.5)
• Buffer system 2 (for the pH ranae from pH 7.5-11.0)
Solubility of liraglutide was determined using Assay (I) described herein. Liraglutide was prepared using Method 1 (evaporation) or Method 2 (precipitation) as described in subsection “96-well plate preparation”.

## CCCCCCCCCCCCCCCC(=O)N[C@@H](CCC(=O)NCCCC[C@H](NC(=O)[C@H](C)NC(=O)[C@H](C)NC(=O)[C@H](CCC(N)=O)NC(=O)CNC(=O)[C@H](CCC(=O)O)NC(=O)[C@H](CC(C)C)NC(=O)[C@H](Cc1ccc(O)cc1)NC(=O)[C@H](CO)NC(=O)[C@H](CO)NC(=O)[C@@H](NC(=O)[C@H](CC(=O)O)NC(=O)[C@H](CO)NC(=O)[C@@H](NC(=O)[C@H](Cc1ccccc1)NC(=O)[C@@H](NC(=O)CNC(=O)[C@H](CCC(=O)O)NC(=O)[C@H](C)NC(=O)[C@@H](N)Cc1cnc[nH]1)[C@@H](C)O)[C@@H](C)O)C(C)C)C(=O)N[C@@H](CCC(=O)O)C(=O)N[C@@H](Cc1ccccc1)C(=O)N[C@H](C(=O)N[C@@H](C)C(=O)N[C@@H](Cc1c[nH]c2ccccc12)C(=O)N[C@@H](CC(C)C)C(=O)N[C@H](C(=O)N[C@@H](CCCNC(=N)N)C(=O)NCC(=O)N[C@@H](CCCNC(=N)N)C(=O)NCC(=O)O)C(C)C)[C@@H](C)CC)C(=O)O [liraglutide, Arg34,Lys26-(N-epsilon-(gamma-L-glutamyl(N-alfa-hexadecanoyl)))-GLP-1(7-37)]
DMF 0.0% w/w, pH 3.1, RT
  Peptide concentration after 5 min: 0.2 mg/mL
  Peptide concentration after 180 min: 0.2 mg/mL
DMF 0.0% w/w, pH 4.8, RT
  Peptide concentration after 5 min: 0.2 mg/mL
  Peptide concentration after 180 min: 0.2 mg/mL
DMF 0.0% w/w, pH 5.8, RT
  Peptide concentration after 5 min: 0.2 mg/mL
  Peptide concentration after 180 min: 1.1 mg/mL
DMF 0.0% w/w, pH 6.3, RT
  Peptide concentration after 5 min: 0.9 mg/mL
  Peptide concentration after 180 min: 2.4 mg/mL
  Peptide concentration after 24 h: >4.0 mg/mL
DMF 0.0% w/w, pH 6.7, RT
  Peptide concentration after 5 min: 1.0 mg/mL
  Peptide concentration after 180 min: 3.1 mg/mL
DMF 0.0% w/w, pH 6.9, RT
  Peptide concentration after 5 min: 1.1 mg/mL
  Peptide concentration after 180 min: >4.0 mg/mL
  Peptide concentration after 24 h: >4.0 mg/mL
DMF 0.0% w/w, pH 7.2, RT
  Peptide concentration after 5 min: 0.7 mg/mL
  Peptide concentration after 180 min: >4.0 mg/mL
  Peptide concentration after 24 h: >4.0 mg/mL
DMF 0.0% w/w, pH 7.5, RT
  Peptide concentration after 5 min: 1.9 mg/mL
  Peptide concentration after 180 min: >4.0 mg/mL
DMF 0.0% w/w, pH 8.0, RT
  Peptide concentration after 5 min: 2.2 mg/mL
  Peptide concentration after 180 min: >4.0 mg/mL
DMF 0.0% w/w, pH 8.5, RT
  Peptide concentration after 5 min: 2.0 mg/mL
  Peptide concentration after 180 min: >4.0 mg/mL
DMF 0.0% w/w, pH 9.0, RT
  Peptide concentration after 5 min: 2.7 mg/mL
  Peptide concentration after 180 min: >4.0 mg/mL
DMF 0.0% w/w, pH 9.5, RT
  Peptide concentration after 5 min: 2.7 mg/mL
  Peptide concentration after 180 min: >4.0 mg/mL
DMF 0.0% w/w, pH 10.0, RT
  Peptide concentration after 5 min: 2.6 mg/mL
  Peptide concentration after 180 min: >4.0 mg/mL
DMF 0.0% w/w, pH 10.5, RT
  Peptide concentration after 5 min: 2.9 mg/mL
  Peptide concentration after 180 min: >4.0 mg/mL
DMF 0.0% w/w, pH 11.0, RT
  Peptide concentration after 5 min: 2.4 mg/mL
  Peptide concentration after 180 min: >4.0 mg/mL
DMF 6.4% w/w, pH 3.1, RT
  Peptide concentration after 5 min: 0.2 mg/mL
  Peptide concentration after 180 min: 0.3 mg/mL
  Peptide concentration after 24 h: 0.8 mg/mL
DMF 6.4% w/w, pH 4.8, RT
  Peptide concentration after 5 min: 0.2 mg/mL
  Peptide concentration after 180 min: 0.4 mg/mL
  Peptide concentration after 24 h: 0.2 mg/mL
DMF 6.4% w/w, pH 5.8, RT
  Peptide concentration after 5 min: 0.3 mg/mL
  Peptide concentration after 180 min: 2.9 mg/mL
  Peptide concentration after 24 h: 2.1 mg/mL
DMF 6.4% w/w, pH 6.3, RT
  Peptide concentration after 5 min: 0.9 mg/mL
  Peptide concentration after 180 min: 2.5 mg/mL
  Peptide concentration after 24 h: >4.0 mg/mL
DMF 6.4% w/w, pH 6.7, RT
  Peptide concentration after 5 min: 1.2 mg/mL
  Peptide concentration after 180 min: 2.5 mg/mL
  Peptide concentration after 24 h: >4.0 mg/mL
DMF 6.4% w/w, pH 6.9, RT
  Peptide concentration after 5 min: 1.1 mg/mL
  Peptide concentration after 180 min: 3.2 mg/mL
  Peptide concentration after 24 h: >4.0 mg/mL
DMF 6.4% w/w, pH 7.2, RT
  Peptide concentration after 5 min: 1.1 mg/mL
  Peptide concentration after 180 min: 3.0 mg/mL
  Peptide concentration after 24 h: >4.0 mg/mL
DMF 6.4% w/w, pH 7.5, RT
  Peptide concentration after 5 min: 1.8 mg/mL
  Peptide concentration after 180 min: >4.0 mg/mL
DMF 6.4% w/w, pH 8.0, RT
  Peptide concentration after 5 min: 1.6 mg/mL
  Peptide concentration after 180 min: >4.0 mg/mL
DMF 6.4% w/w, pH 8.5, RT
  Peptide concentration after 5 min: 2.1 mg/mL
  Peptide concentration after 180 min: >4.0 mg/mL
DMF 6.4% w/w, pH 9.0, RT
  Peptide concentration after 5 min: 2.0 mg/mL
  Peptide concentration after 180 min: >4.0 mg/mL
DMF 6.4% w/w, pH 9.5, RT
  Peptide concentration after 5 min: 2.2 mg/mL
  Peptide concentration after 180 min: >4.0 mg/mL
DMF 6.4% w/w, pH 10.0, RT
  Peptide concentration after 5 min: 2.3 mg/mL
  Peptide concentration after 180 min: >4.0 mg/mL
DMF 6.4% w/w, pH 10.5, RT
  Peptide concentration after 5 min: 2.4 mg/mL
  Peptide concentration after 180 min: >4.0 mg/mL
DMF 6.4% w/w, pH 11.0, RT
  Peptide concentration after 5 min: 1.9 mg/mL
  Peptide concentration after 180 min: >4.0 mg/mL
DMF 12.7% w/w, pH 3.1, RT
  Peptide concentration after 5 min: 0.2 mg/mL
  Peptide concentration after 180 min: 0.4 mg/mL
  Peptide concentration after 24 h: 1.2 mg/mL
DMF 12.7% w/w, pH 4.8, RT
  Peptide concentration after 5 min: 0.2 mg/mL
  Peptide concentration after 180 min: 0.5 mg/mL
  Peptide concentration after 24 h: 0.3 mg/mL
DMF 12.7% w/w, pH 5.8, RT
  Peptide concentration after 5 min: 0.3 mg/mL
  Peptide concentration after 180 min: 3.1 mg/mL
  Peptide concentration after 24 h: 2.3 mg/mL
DMF 12.7% w/w, pH 6.3, RT
  Peptide concentration after 5 min: 0.9 mg/mL
  Peptide concentration after 180 min: 2.3 mg/mL
  Peptide concentration after 24 h: >4.0 mg/mL
DMF 12.7% w/w, pH 6.7, RT
  Peptide concentration after 5 min: 1.0 mg/mL
  Peptide concentration after 180 min: 2.0 mg/mL
  Peptide concentration after 24 h: 3.9 mg/mL
DMF 12.7% w/w, pH 6.9, RT
  Peptide concentration after 5 min: 1.0 mg/mL
  Peptide concentration after 180 min: 3.0 mg/mL
  Peptide concentration after 24 h: >4.0 mg/mL
DMF 12.7% w/w, pH 7.2, RT
  Peptide concentration after 5 min: 0.9 mg/mL
  Peptide concentration after 180 min: 2.3 mg/mL
  Peptide concentration after 24 h: >4.0 mg/mL
DMF 12.7% w/w, pH 7.5, RT
  Peptide concentration after 5 min: 1.7 mg/mL
  Peptide concentration after 180 min: >4.0 mg/mL
DMF 12.7% w/w, pH 8.0, RT
  Peptide concentration after 5 min: 1.4 mg/mL
  Peptide concentration after 180 min: >4.0 mg/mL
DMF 12.7% w/w, pH 8.5, RT
  Peptide concentration after 5 min: 1.9 mg/mL
  Peptide concentration after 180 min: >4.0 mg/mL
DMF 12.7% w/w, pH 9.0, RT
  Peptide concentration after 5 min: 1.9 mg/mL
  Peptide concentration after 180 min: >4.0 mg/mL
